Experimental data: patent publication US20110275798A1, “Method for Determination of Sirolimus Stability and Process for Preparing Its Stable Form” (priority 2009, published 2011)
At least one structure is not confirmed: it was looked up by name or label, or the drawing left a doubt.

Assay: NIR spectroscopy for determination of sirolimus crystallinity
Type: physicochemical

CO[C@H]1C[C@@H]2CC[C@@H](C)[C@@](O)(O2)C(=O)C(=O)N2CCCC[C@H]2C(=O)O[C@H]([C@H](C)C[C@@H]2CC[C@@H](O)[C@H](OC)C2)CC(=O)[C@H](C)/C=C(\C)[C@@H](O)[C@@H](OC)C(=O)[C@H](C)C[C@H](C)/C=C/C=C/C=C/1C [sirolimus]
degree of crystallinity for the crystals (Example 2: crystallized from ethyl acetate / n-heptane (0.54 ml/min) at about 25° C.): 100%
degree of crystallinity for the crystals (Example 3: crystallized from acetonitrile / water (0.425 ml/min) at 25° C.): 97%
degree of crystallinity for the crystals (Example 4: crystallized from ethyl acetate / diethyl ether (0.1 ml/min)): 98%
crystallinity of the test sample (test sample, second derivative of NIR spectrum at 4973.6 cm^-1 put into calibration equation): 99%
